Data as given in PMC9508819, “Rbp95 binds to 25S rRNA helix H95 and cooperates with the Npa1 complex during early pre-60S particle maturation”.
Results are given in words; binding and its absence hold for the method and conditions named. Binding seen in cells or lysates may run through a third protein. Some binding calls cover weakened binding; strength is not graded here.

Key:
Assay in all cases: co-IP; tandem-affinity purification from yeast lysate (IgG Sepharose, TEV elution, Calmodulin Sepharose, EGTA elution); 50 mM Tris-HCl pH 7.5, 100 mM NaCl, 1.5 mM MgCl2, 0.1% NP-40, 1 mM DTT; eluates analysed by western blotting; for Figure 8C from wild-type and Δrbp95 strains
[1] = target: T1, Lsg1-TAP (S. cerevisiae) (UniProt P53145)
T1 sequence: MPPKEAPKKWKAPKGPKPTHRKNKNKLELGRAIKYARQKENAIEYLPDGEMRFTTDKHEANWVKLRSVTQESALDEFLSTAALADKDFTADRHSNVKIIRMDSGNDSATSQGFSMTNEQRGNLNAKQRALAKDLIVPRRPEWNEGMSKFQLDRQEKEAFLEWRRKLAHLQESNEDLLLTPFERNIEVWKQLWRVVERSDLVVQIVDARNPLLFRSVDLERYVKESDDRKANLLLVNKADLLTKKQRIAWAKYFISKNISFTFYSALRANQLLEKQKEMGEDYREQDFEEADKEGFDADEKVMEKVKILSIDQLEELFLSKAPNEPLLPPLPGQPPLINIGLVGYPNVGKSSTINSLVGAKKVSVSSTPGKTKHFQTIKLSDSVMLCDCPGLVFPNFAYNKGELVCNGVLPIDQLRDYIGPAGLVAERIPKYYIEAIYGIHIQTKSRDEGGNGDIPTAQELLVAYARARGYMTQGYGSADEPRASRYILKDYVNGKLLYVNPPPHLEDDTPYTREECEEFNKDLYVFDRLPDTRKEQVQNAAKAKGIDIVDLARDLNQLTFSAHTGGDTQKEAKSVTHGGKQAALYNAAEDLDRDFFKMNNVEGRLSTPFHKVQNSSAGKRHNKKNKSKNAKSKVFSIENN

[2] = target: T2, Nsa1-TAP (S. cerevisiae) (UniProt P53136)
T2 sequence: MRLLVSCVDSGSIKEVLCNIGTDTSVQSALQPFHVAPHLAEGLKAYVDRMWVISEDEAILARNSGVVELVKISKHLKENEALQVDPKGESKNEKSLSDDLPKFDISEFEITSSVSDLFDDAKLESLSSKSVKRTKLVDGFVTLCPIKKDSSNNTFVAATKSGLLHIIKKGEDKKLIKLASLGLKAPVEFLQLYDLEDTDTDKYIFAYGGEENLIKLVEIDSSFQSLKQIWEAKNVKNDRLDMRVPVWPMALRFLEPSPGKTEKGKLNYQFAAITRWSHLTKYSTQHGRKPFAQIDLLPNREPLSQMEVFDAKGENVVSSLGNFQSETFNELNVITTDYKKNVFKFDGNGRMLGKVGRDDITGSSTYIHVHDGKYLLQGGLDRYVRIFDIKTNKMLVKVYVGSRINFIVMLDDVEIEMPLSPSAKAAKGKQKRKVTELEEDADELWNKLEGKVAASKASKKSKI

[3] = target: T3, Rix1-TAP (S. cerevisiae) (UniProt P38883)
T3 sequence: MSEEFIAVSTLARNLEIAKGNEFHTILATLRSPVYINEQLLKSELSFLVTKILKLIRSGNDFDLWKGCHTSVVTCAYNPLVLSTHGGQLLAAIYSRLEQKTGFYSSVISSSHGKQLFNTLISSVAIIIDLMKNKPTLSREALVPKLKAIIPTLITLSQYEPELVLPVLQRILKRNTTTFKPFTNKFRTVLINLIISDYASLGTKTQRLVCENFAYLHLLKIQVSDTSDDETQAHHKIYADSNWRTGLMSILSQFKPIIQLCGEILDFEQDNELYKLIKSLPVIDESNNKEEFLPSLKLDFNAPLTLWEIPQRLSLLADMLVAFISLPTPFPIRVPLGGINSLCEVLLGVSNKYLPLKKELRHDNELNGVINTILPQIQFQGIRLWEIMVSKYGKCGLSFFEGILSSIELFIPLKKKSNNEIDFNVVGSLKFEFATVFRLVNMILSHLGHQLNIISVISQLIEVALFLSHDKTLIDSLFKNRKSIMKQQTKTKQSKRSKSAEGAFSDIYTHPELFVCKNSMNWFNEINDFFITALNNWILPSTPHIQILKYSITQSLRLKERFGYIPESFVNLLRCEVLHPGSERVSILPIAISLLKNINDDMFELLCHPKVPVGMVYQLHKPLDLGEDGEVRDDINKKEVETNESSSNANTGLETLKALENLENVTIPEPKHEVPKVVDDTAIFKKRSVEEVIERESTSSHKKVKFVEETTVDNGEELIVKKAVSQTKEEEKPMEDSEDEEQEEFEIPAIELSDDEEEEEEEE

[4] = target: T4, Ssf1-TAP (S. cerevisiae) (UniProt P38789)
T4 sequence: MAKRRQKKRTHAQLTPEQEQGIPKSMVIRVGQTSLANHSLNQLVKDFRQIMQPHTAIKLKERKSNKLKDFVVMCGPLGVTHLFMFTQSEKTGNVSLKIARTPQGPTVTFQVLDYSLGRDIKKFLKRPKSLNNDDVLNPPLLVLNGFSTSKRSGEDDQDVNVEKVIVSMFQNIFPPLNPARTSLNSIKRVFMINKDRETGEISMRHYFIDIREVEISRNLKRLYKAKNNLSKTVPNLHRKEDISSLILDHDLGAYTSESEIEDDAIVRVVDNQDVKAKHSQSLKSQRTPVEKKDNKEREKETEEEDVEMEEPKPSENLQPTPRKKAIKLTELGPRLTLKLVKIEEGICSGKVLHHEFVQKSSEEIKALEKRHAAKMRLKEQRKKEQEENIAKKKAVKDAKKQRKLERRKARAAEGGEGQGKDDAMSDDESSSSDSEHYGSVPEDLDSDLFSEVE

binding [1]: binds weakly | binding [2]: binds weakly | binding [3]: binds weakly | binding [4]: binds
B1: Rbp95 (Ycr016w) (protein, UniProt P25617 1-290)
chain: MSENHVPAWKRIALKRQTISSGDESKEKGQSNLIDDDPLNITTHLSTGNLTKKEKKRIINGESKSSTKKGKRVSKPGTKKKEKLSKDEKNSKKNKILKDQLRYLIEFFRTKSESKFPTGILELESVKENYGDSLIKDEPSESGVVEVWKFSKQKQNWLIKHFFNLDEIPSVYNDLLLLYFRDLQGKSKEELISKCKGKLKQWNDYVEDQETKIKALIAEDKASEPINGEEKEEGEKDGNAEQGKQKEVQDEQEEVQMPNKELVQRSLKLLEIWKNDDSEQIELKNFFVDV
